Laboratory results: PubChem BioAssay AID212 (DTP/NCI, 2004)
The list shows only some results of the screen, not a fair sample: it gathers tests that were run many times, whatever their T/C, doses with no T/C, and many T/C values between a quarter and a half above the control. Further doses and runs are listed elsewhere. T/C gives the treated animals as a percentage of the vehicle group. Schedule codes are those of the source, taken here to give the interval after Q, in days (D) or hours (H), and the number of doses after X. Some T/C values carry the count of animals alive at the toxicity check (mostly the fifth day); without a count, all were alive then. Some entries were tested several times; the results are listed from low to high. Some entries give survivors of the animals treated and no T/C: the source holds a T/C of zero for them, seemingly a mark for toxic or unscored doses. Survivors were counted at the toxicity check, usually on the fifth day, unless a day is given; later deaths do not show.

Test system: BDF1 mice, colon carcinoma 38 sc, T/C %
Assay: NCI In Vivo Anticancer Drug Screen. Data for tumor model Colon Carcinoma 38 (subcutaneous) in B6D2F1 (BDF1) mice
Conditions: T/C endpoint: median tumor weight (est.), higher T/C = larger tumour; for T/C: evaluated on day 20
Protocol: The antitumor activity of compounds was measured in mice bearing transplantable tumors. Survival or tumor size were measured and the results are expressed as the measurement made in the treated group (T) divided by the measurement made in the vehicle treated control group (C). The tumor model used in this assay is Colon Carcinoma 38 (subcutaneous) in B6D2F1 (BDF1) mice

[1] = dose: 25.0 mg/kg/injection, schedule: Q07DX002 (ip), vehicle: saline with Tween-80
[2] = dose: 100.0 mg/kg/injection, schedule: Q07DX002 (ip), vehicle: saline with Tween-80
[3] = dose: 50.0 mg/kg/injection, schedule: Q07DX003 (ip), vehicle: saline
[4] = dose: 6.25 mg/kg/injection, schedule: Q07DX002 (ip), vehicle: Klucel (hydroxypropylcellulose) (HPC)
[5] = dose: 50.0 mg/kg/injection, schedule: Q07DX002 (ip), vehicle: Klucel (hydroxypropylcellulose) (HPC)
[6] = dose: 100.0 mg/kg/injection, schedule: Q07DX002 (ip), vehicle: Klucel (hydroxypropylcellulose) (HPC)
[7] = dose: 400.0 mg/kg/injection, schedule: Q07DX002 (ip), vehicle: saline with Tween-80

With `Cc1nn(CCO)c(C)c1N=[N+]([O-])c1c(C)nn(CCO)c1C` the T/C [1] was 134 % of control [8 of 10 alive on day 20], the T/C [2] was 144 % of control and the survivor count (dose: 200.0 mg/kg/injection, schedule: Q07DX002 (ip), vehicle: Klucel (hydroxypropylcellulose) (HPC)) was 4 of 10 on day 20. The survivor count (dose: 400.0 mg/kg/injection, schedule: Q07DX002 (ip), vehicle: Klucel (hydroxypropylcellulose) (HPC)) was 0 of 10 on day 20.

`COc1ccc(-c2csc(=[N+]3CCCCC3)s2)cc1` was tested, and the survivor count (dose: 100.0 mg/kg/injection, schedule: Q07DX002 (ip), vehicle: water) was 0 of 10 on day 20.

`CC/C(=C(/CC)c1ccc(O)cc1)c1ccc(O)cc1` was tested, and the T/C (dose: 50.0 mg/kg/injection, schedule: Q07DX003 (ip), vehicle: saline with Tween-80) was 135 % of control.

`N#CN=[N+]([O-])c1ccc(C(=O)O)cc1` was tested, and the T/C (dose: 7.5 mg/kg/injection, schedule: Q07DX002 (ip), vehicle: Klucel (hydroxypropylcellulose) (HPC)) was 135 % of control, the T/C (dose: 15.0 mg/kg/injection, schedule: Q07DX002 (ip), vehicle: Klucel (hydroxypropylcellulose) (HPC)) was 147 % of control and the T/C (dose: 30.0 mg/kg/injection, schedule: Q07DX002 (ip), vehicle: Klucel (hydroxypropylcellulose) (HPC)) was 133 [9 of 10 alive on day 20] and 147 % of control. The survivor count (dose: 60.0 mg/kg/injection, schedule: Q07DX002 (ip), vehicle: Klucel (hydroxypropylcellulose) (HPC)) was 3 of 10 on day 20 and the survivor count (dose: 120.0 mg/kg/injection, schedule: Q07DX002 (ip), vehicle: Klucel (hydroxypropylcellulose) (HPC)) was 0 of 10 on day 20.

For `COC1=C(N)C(=O)c2nc(-c3nc(C(=O)O)c(C)c(-c4ccc(OC)c(OC)c4O)c3N)ccc2C1=O`, the T/C (dose: 0.02 mg/kg/injection, schedule: Q07DX003 (ip), vehicle: Klucel (hydroxypropylcellulose) (HPC)) was 136 % of control.

`COC1=C2C[C@@H](C)C[C@@H](OC)[C@@H](O)[C@H](C)/C=C(\C)[C@@H](OC(N)=O)[C@H](OC)/C=C\C=C(/C)C(=O)NC(=CC1=O)C2=O` was tested, and the T/C (dose: 0.5 mg/kg/injection, schedule: Q07DX002 (ip), vehicle: saline with Tween-80) was 137 % of control, the T/C (dose: 1.0 mg/kg/injection, schedule: Q07DX002 (ip), vehicle: saline with Tween-80) was 136 % of control and the T/C (dose: 2.0 mg/kg/injection, schedule: Q07DX002 (ip), vehicle: saline with Tween-80) was 132 % of control. The T/C (dose: 4.0 mg/kg/injection, schedule: Q07DX002 (ip), vehicle: saline with Tween-80) was 142 % of control.

For `O=[N+]([O-])O.[Ga]`, the T/C [3] was 128 % of control [9 of 10 alive], the survivor count (dose: 200.0 mg/kg/injection, schedule: Q07DX002 (ip), vehicle: saline) was 6 of 10 and the survivor count (dose: 200.0 mg/kg/injection, schedule: Q07DX003 (ip), vehicle: saline) was 5 of 10.

For `C[C@]12CC[C@@H]3c4ccc(O)cc4CC[C@H]3[C@@H]1CC[C@@H]2O`, the T/C [4] was 143 % of control, the T/C [5] was 128 % of control [9 of 10 alive] and the T/C [6] was 131 % of control [9 of 10 alive].

`Cc1ccc(-c2cc(=O)c3cccc(CC(=O)O)c3o2)cc1` was tested, and the survivor count [7] was 1 of 10 on day 20.

`ClC1=C(Cl)C(Cl)=C(Cl)C1=Cc1ccccc1` was tested, and the T/C (dose: 3.12 mg/kg/injection, schedule: Q07DX002 (ip), vehicle: saline with Tween-80) was 127 % of control.

In the case of `C[C@@H]1C(=O)C[C@H]2C(C)(C)CCC[C@]2(C)[C@@]1(O)CCc1ccoc1`, the T/C [6] is reported as 128 % of control.

`Cc1cc2c(C(C)C)c(O)c(O)c(C=O)c2c(O)c1-c1c(C)cc2c(C(C)C)c(O)c(O)c(C=O)c2c1O` was tested, and the survivor count [1] was 1 of 10 on day 20, the survivor count (dose: 50.0 mg/kg/injection, schedule: Q07DX002 (ip), vehicle: saline with Tween-80) was 0 of 10 on day 20 and the survivor count [2] was 0 of 10 on day 20. The survivor count (dose: 200.0 mg/kg/injection, schedule: Q07DX002 (ip), vehicle: saline with Tween-80) was 0 of 10 on day 20 and the survivor count [7] was 0 of 10 on day 20.

With `Cc1c2ccccc2cc2cccc[n+]12` the T/C (dose: 20.0 mg/kg/injection, schedule: Q07DX002 (ip), vehicle: saline) was 136 % of control, the survivor count (dose: 80.0 mg/kg/injection, schedule: Q07DX002 (ip), vehicle: saline) was 0 of 10 on day 20 and the survivor count (dose: 160.0 mg/kg/injection, schedule: Q07DX002 (ip), vehicle: saline) was 0 of 10 on day 20.

`O=c1cc(-c2ccccc2)[nH]c2c1CCCC2` was tested, and the T/C (dose: 450.0 mg/kg/injection, schedule: Q07DX002 (ip), vehicle: saline with Tween-80) was 128 % of control, the survivor count (dose: 1800.0 mg/kg/injection, schedule: Q07DX002 (ip), vehicle: saline with Tween-80) was 5 of 9 on day 20 and the survivor count (dose: 3600.0 mg/kg/injection, schedule: Q07DX002 (ip), vehicle: saline with Tween-80) was 3 of 10 on day 20.

With `COC1(OC)C2C=CC1CC2` the T/C (dose: 12.5 mg/kg/injection, schedule: Q07DX002 (ip), vehicle: saline with Tween-80) was 133 % of control [9 of 10 alive on day 20].

In the case of `C1CCC2OCCOCCOC3CCCCC3OCCOCCOC2C1` (centres undefined), the T/C [4] is reported as 126 % of control, the T/C (dose: 12.5 mg/kg/injection, schedule: Q07DX002 (ip), vehicle: Klucel (hydroxypropylcellulose) (HPC)) is reported as 125 % of control and the T/C [5] is reported as 149 % of control.

With `Cc1ccc(NC(=O)Oc2ccc(Br)cc2Br)c([N+](=O)[O-])c1` the T/C [7] was 134 % of control [8 of 10 alive].

`C=C(C)[C@H]1CN[C@H](C(=O)O)[C@H]1CC(=O)O` was tested, and the survivor count (dose: 50.0 mg/kg/injection, schedule: Q07DX002 (ip), vehicle: saline) was 3 of 10 on day 20 and the survivor count (dose: 100.0 mg/kg/injection, schedule: Q07DX002 (ip), vehicle: saline) was 0 of 10 on day 20.

In the case of `[N-]=[N+]=CC(=O)CCC(N)C(=O)O` (centres undefined), the T/C (dose: 6.25 mg/kg/injection, schedule: Q07DX003 (ip), vehicle: saline) is reported as 26 [9 of 10 alive], 49, 64, 69 % of control, the T/C (dose: 12.5 mg/kg/injection, schedule: Q07DX003 (ip), vehicle: saline) is reported as 21 [9 of 10 alive], 28, 42, 50 % of control and the T/C (dose: 25.0 mg/kg/injection, schedule: Q07DX003 (ip), vehicle: saline) is reported as 9, 17 [9 of 10 alive], 27 [9 of 10 alive], 30 % of control. The survivor count [3] was 5 of 10 and the survivor count (dose: 100.0 mg/kg/injection, schedule: Q07DX003 (ip), vehicle: saline) was 5 of 10.

In the case of `CN(C)C(=O)c1cccc(COc2ccc(N3C(N)=NC(N)=NC3(C)C)cc2Cl)c1`, the survivor count (dose: 64.0 mg/kg/injection, schedule: Q07DX003 (ip), vehicle: saline) is reported as 6 of 10.

For `CNC(=O)OCc1c(COC(=O)NC)c(-c2ccc(Cl)c(Cl)c2)n2c1Cc1ccccc1C2`, the survivor count (dose: 400.0 mg/kg/injection, schedule: Q07DX002 (ip), vehicle: distilled water + Tween-80) was 6 of 10 on day 20 and the survivor count (dose: 800.0 mg/kg/injection, schedule: Q07DX002 (ip), vehicle: distilled water + Tween-80) was 2 of 10 on day 20.

`NCCCC(N)(C(=O)O)C(F)F` (centres undefined) was tested, and the T/C (dose: 200.0 mg/kg/injection, schedule: Q07DX002 (ip), vehicle: distilled water + alcohol) was 144 % of control [9 of 10 alive on day 20] and the T/C (dose: 800.0 mg/kg/injection, schedule: Q07DX002 (ip), vehicle: distilled water + alcohol) was 136 % of control [9 of 10 alive on day 20].

For `C1OCN2CSCC12` (centres undefined), the survivor count (dose: 800.0 mg/kg/injection, schedule: Q07DX002 (ip), vehicle: saline with Tween-80) was 2 of 10 on day 20.
